Reference: the supplement of paper PMC7661543
± gives the standard deviation of the averaged measurements. Differences between knockout arms are mostly noise.

System: MDA-MB-231
Assay: relative cell number vs DMSO control (72 h) (% of DMSO); higher = less growth inhibition (more cells)
Method: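 QMAP-Seq: a pool of 5 breast cancer cell lines (ZR-75-1, SKBR3, HCC-38, MDA-MB-231, BT-20), each carrying 12 doxycycline-inducible Cas9 sgRNA perturbations (11 knockouts plus non-targeting sgNT), was treated with compounds for 72 h at four 10-fold doses (10 nM-10 uM or 1 nM-1 uM range). Barcodes were amplified and sequenced, and cell number was interpolated from 293T spike-in standard curves. The result is expressed as % of the median of DMSO wells. Two biological replicates.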

[1] = sgRNA knockout: sgATF3, 1000 nM
[2] = sgRNA knockout: sgATF3, 10000 nM
[3] = sgRNA knockout: sgATF4, 1000 nM
[4] = sgRNA knockout: sgATF4, 10000 nM
[5] = sgRNA knockout: sgATF6, 1000 nM
[6] = sgRNA knockout: sgATF6, 10000 nM
[7] = sgRNA knockout: sgATG7, 1000 nM
[8] = sgRNA knockout: sgATG7, 10000 nM
[9] = sgRNA knockout: sgERN1, 1000 nM
[10] = sgRNA knockout: sgERN1, 10000 nM
[11] = sgRNA knockout: sgHSF1, 1000 nM
[12] = sgRNA knockout: sgHSF1, 10000 nM
[13] = sgRNA knockout: sgHSF2, 1000 nM
[14] = sgRNA knockout: sgHSF2, 10000 nM
[15] = sgRNA knockout: sgKEAP1, 100 nM
[16] = sgRNA knockout: sgKEAP1, 1000 nM
[17] = sgRNA knockout: sgKEAP1, 10000 nM
[18] = sgRNA knockout: sgNFE2L2, 10 nM
[19] = sgRNA knockout: sgNFE2L2, 100 nM
[20] = sgRNA knockout: sgNFE2L2, 1000 nM
[21] = sgRNA knockout: sgNFE2L2, 10000 nM
[22] = sgRNA knockout: sgSLC35F2, 10 nM
[23] = sgRNA knockout: sgSLC35F2, 100 nM
[24] = sgRNA knockout: sgSLC35F2, 1000 nM
[25] = sgRNA knockout: sgSLC35F2, 10000 nM
[26] = sgRNA knockout: sgXBP1, 1000 nM
[27] = sgRNA knockout: sgXBP1, 10000 nM

## C=C(C)[C@@H]1CC[C@]2(C(=O)O)CC[C@]3(C)[C@H](CC[C@@H]4[C@@]5(C)CC[C@H](O)C(C)(C)[C@@H]5CC[C@]43C)[C@@H]12 [BetulinicAcid]
sgRNA knockout: sgATF3, 10 nM
  relative cell number: 97.4 ± 11
sgRNA knockout: sgATF3, 100 nM
  relative cell number: 102 ± 4
[1]
  relative cell number: 101 ± 6.3
[2]
  relative cell number: 108 ± 8.3
sgRNA knockout: sgATF4, 10 nM
  relative cell number: 78.8 ± 9.3
sgRNA knockout: sgATF4, 100 nM
  relative cell number: 84.6 ± 4
[3]
  relative cell number: 96 ± 15
[4]
  relative cell number: 96.6 ± 7.1
sgRNA knockout: sgATF6, 10 nM
  relative cell number: 91.4 ± 1.5
sgRNA knockout: sgATF6, 100 nM
  relative cell number: 88.3 ± 4.6
[5]
  relative cell number: 114 ± 25
[6]
  relative cell number: 113 ± 15
sgRNA knockout: sgATG7, 10 nM
  relative cell number: 100 ± 9.4
sgRNA knockout: sgATG7, 100 nM
  relative cell number: 105 ± 11
[7]
  relative cell number: 72.6 ± 13
[8]
  relative cell number: 110.5 ± 0.56
sgRNA knockout: sgERN1, 10 nM
  relative cell number: 121 ± 25
sgRNA knockout: sgERN1, 100 nM
  relative cell number: 97.8 ± 15
[9]
  relative cell number: 89.9 ± 38
[10]
  relative cell number: 102 ± 6.9
sgRNA knockout: sgHSF1, 10 nM
  relative cell number: 82.3 ± 13
sgRNA knockout: sgHSF1, 100 nM
  relative cell number: 90.4 ± 3.6
[11]
  relative cell number: 78.8 ± 1.4
[12]
  relative cell number: 108 ± 1.5
sgRNA knockout: sgHSF2, 10 nM
  relative cell number: 91.4 ± 11
sgRNA knockout: sgHSF2, 100 nM
  relative cell number: 83.5 ± 4.3
[13]
  relative cell number: 88 ± 2.8
[14]
  relative cell number: 101 ± 6.9
sgRNA knockout: sgKEAP1, 10 nM
  relative cell number: 117 ± 9.2
[15]
  relative cell number: 94 ± 29
[16]
  relative cell number: 78.1 ± 7.6
[17]
  relative cell number: 109 ± 15
[18]
  relative cell number: 81.5 ± 12
[19]
  relative cell number: 93.4 ± 29
[20]
  relative cell number: 97.5 ± 8.1
[21]
  relative cell number: 104 ± 14
[22]
  relative cell number: 103 ± 1.2
[23]
  relative cell number: 98.7 ± 16
[24]
  relative cell number: 106 ± 60
[25]
  relative cell number: 97.5 ± 19
sgRNA knockout: sgXBP1, 10 nM
  relative cell number: 106 ± 22
sgRNA knockout: sgXBP1, 100 nM
  relative cell number: 95.4 ± 5
[26]
  relative cell number: 108 ± 29
[27]
  relative cell number: 110 ± 1.7

## C[C@]12CC[C@@H]3c4ccc(O)cc4C[C@@H](CCCCCCCCC[S+]([O-])CCCC(F)(F)C(F)(F)F)[C@H]3[C@@H]1CC[C@@H]2O (stereo partly drawn) [Fulvestrant]
sgRNA knockout: sgATF3, 10 nM
  relative cell number: 89.4 ± 8.4
sgRNA knockout: sgATF3, 100 nM
  relative cell number: 105 ± 3.8
[1]
  relative cell number: 104 ± 27
[2]
  relative cell number: 86.2 ± 27
sgRNA knockout: sgATF4, 10 nM
  relative cell number: 122 ± 2.8
sgRNA knockout: sgATF4, 100 nM
  relative cell number: 77 ± 15
[3]
  relative cell number: 74.5 ± 8.3
[4]
  relative cell number: 93.1 ± 9.9
sgRNA knockout: sgATF6, 10 nM
  relative cell number: 81.9 ± 29
sgRNA knockout: sgATF6, 100 nM
  relative cell number: 73 ± 20
[5]
  relative cell number: 109 ± 8.7
[6]
  relative cell number: 82.8 ± 20
sgRNA knockout: sgATG7, 10 nM
  relative cell number: 93.3 ± 5
sgRNA knockout: sgATG7, 100 nM
  relative cell number: 77.8 ± 18
[7]
  relative cell number: 93.3 ± 25
[8]
  relative cell number: 95.2 ± 32
sgRNA knockout: sgERN1, 10 nM
  relative cell number: 107 ± 5
sgRNA knockout: sgERN1, 100 nM
  relative cell number: 90.9 ± 5.5
[9]
  relative cell number: 129 ± 9.6
[10]
  relative cell number: 84.3 ± 7
sgRNA knockout: sgHSF1, 10 nM
  relative cell number: 97.6 ± 6.2
sgRNA knockout: sgHSF1, 100 nM
  relative cell number: 83.2 ± 26
[11]
  relative cell number: 112 ± 30
[12]
  relative cell number: 88.7 ± 30
sgRNA knockout: sgHSF2, 10 nM
  relative cell number: 89.9 ± 37
sgRNA knockout: sgHSF2, 100 nM
  relative cell number: 117 ± 7.2
[13]
  relative cell number: 100 ± 12
[14]
  relative cell number: 78 ± 9.3
sgRNA knockout: sgKEAP1, 10 nM
  relative cell number: 89.5 ± 16
[15]
  relative cell number: 91.9 ± 17
[16]
  relative cell number: 109 ± 2.6
[17]
  relative cell number: 94.1 ± 16
[18]
  relative cell number: 116 ± 11
[19]
  relative cell number: 75.6 ± 15
[20]
  relative cell number: 112.29 ± 0.057
[21]
  relative cell number: 80.8 ± 2.9
[22]
  relative cell number: 90.7 ± 7.2
[23]
  relative cell number: 86.6 ± 4.2
[24]
  relative cell number: 105 ± 33
[25]
  relative cell number: 85.666 ± 0.074
sgRNA knockout: sgXBP1, 10 nM
  relative cell number: 92.1 ± 1.2
sgRNA knockout: sgXBP1, 100 nM
  relative cell number: 87.2 ± 11
[26]
  relative cell number: 102 ± 5
[27]
  relative cell number: 78.6 ± 16
